Strings that start with PEPTIDE1 are HELM notation: dots part the residues, brackets hold end groups and non-standard residues. Non-standard residues stand in square brackets, D forms with d. *: point of attachment. Daunorubicin(13-NOCH2CO) = COc1cccc2c1C(=O)c1c(O)c3c(c(O)c1C2=O)C[C@@](O)(C(C)=NOCC(=O)*)C[C@@H]3O[C@H]1C[C@H](N)[C@H](O)[C@H](C)O1; pGlu = O=C1CC[C@@H](C(=O)O)N1; Butyryl = CCCC(=O)*
Assay: general procedure: Fmoc solid-phase peptide synthesis; Rink-Amide MBHA resin (0.73 mmol/g coupling capacity); DIC/HOBt
Settings: whole synthesis; for final HPLC purity: 220 nm; for isolated yield: over all synthetic and purification steps

Substance	final HPLC purity [%]	isolated yield [%]
PEPTIDE1{[Glp].H.W.[Lys(Bu)].H.D.W.K.P.G.[am]}|PEPTIDE2{[DauAoa]}$PEPTIDE1,PEPTIDE2,8:R3-1:R2$$$V2.0	>97	27
PEPTIDE1{[Glp].H.W.[Lys(Bu)].H.[dD].W.K.P.G.[am]}|PEPTIDE2{[DauAoa]}$PEPTIDE1,PEPTIDE2,8:R3-1:R2$$$V2.0	>98	9
[pGlu]HWK(Butyryl)H[dE]WK(Daunorubicin(13-NOCH2CO))PG-NH2 (SMILES CCCC(=O)NCCCC[C@H](NC(=O)[C@H](Cc1c[nH]c2ccccc12)NC(=O)[C@H](Cc1c[nH]cn1)NC(=O)[C@@H]1CCC(=O)N1)C(=O)N[C@@H](Cc1c[nH]cn1)C(=O)N[C@H](CCC(=O)O)C(=O)N[C@@H](Cc1c[nH]c2ccccc12)C(=O)N[C@@H](CCCCNC(=O)CON=C(C)[C@]1(O)Cc2c(O)c3c(c(O)c2[C@@H](O[C@H]2C[C@H](N)[C@H](O)[C@H](C)O2)C1)C(=O)c1c(OC)cccc1C3=O)C(=O)N1CCC[C@H]1C(=O)NCC(N)=O)	>96	7
[pGlu]HWK(Butyryl)H[dW]WK(Daunorubicin(13-NOCH2CO))PG-NH2 (SMILES CCCC(=O)NCCCC[C@H](NC(=O)[C@H](Cc1c[nH]c2ccccc12)NC(=O)[C@H](Cc1c[nH]cn1)NC(=O)[C@@H]1CCC(=O)N1)C(=O)N[C@@H](Cc1c[nH]cn1)C(=O)N[C@H](Cc1c[nH]c2ccccc12)C(=O)N[C@@H](Cc1c[nH]c2ccccc12)C(=O)N[C@@H](CCCCNC(=O)CON=C(C)[C@]1(O)Cc2c(O)c3c(c(O)c2[C@@H](O[C@H]2C[C@H](N)[C@H](O)[C@H](C)O2)C1)C(=O)c1c(OC)cccc1C3=O)C(=O)N1CCC[C@H]1C(=O)NCC(N)=O)	>97	6
[pGlu]HWSH[dW]WK(Daunorubicin(13-NOCH2CO))PG-NH2 (SMILES COc1cccc2c1C(=O)c1c(O)c3c(c(O)c1C2=O)C[C@@](O)(C(C)=NOCC(=O)NCCCC[C@H](NC(=O)[C@H](Cc1c[nH]c2ccccc12)NC(=O)[C@@H](Cc1c[nH]c2ccccc12)NC(=O)[C@H](Cc1c[nH]cn1)NC(=O)[C@H](CO)NC(=O)[C@H](Cc1c[nH]c2ccccc12)NC(=O)[C@H](Cc1c[nH]cn1)NC(=O)[C@@H]1CCC(=O)N1)C(=O)N1CCC[C@H]1C(=O)NCC(N)=O)C[C@@H]3O[C@H]1C[C@H](N)[C@H](O)[C@H](C)O1)	>95	7

From PMC5905287 (Beilstein Journal of Organic Chemistry, 2018)
